For some of these results: No signal at the amounts used counts as a negative. For some of these results: The exact form of at least one protein or probe is not confirmed. For some of these results: At least one verdict was read from the data and is not stated in words by the source. For some of these results: Protein sequences can lack the tags named with them.
Columns and labels:
[1] = biological target: T1, PcfF1-54 (Enterococcus faecalis plasmid pCF10) (UniProt Q5G3N6); experiment: EMSA (DNA bending); details: smeary shift; EMSA: 30 nM DNA, 10 mM Tris/HCl pH 7.5, 200 mM NaCl (150 mM NaCl with PcfG), 15 min at room temperature; 20% native PAGE in TAE pH 8.0 at 4 C; recombinant protein; residues 1-54; protein details: N-terminal GST, 3C-cleaved (4 extra residues left)
T1 sequence (looked up): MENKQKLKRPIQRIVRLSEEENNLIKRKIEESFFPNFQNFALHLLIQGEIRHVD

PcfF + PcfG = experiment: EMSA; details: no supershift by 300 nM PcfG, PcfF-oriT complex itself forms; EMSA: 30 nM DNA, 10 mM Tris/HCl pH 7.5, 200 mM NaCl (150 mM NaCl with PcfG), 15 min at room temperature; 20% native PAGE in TAE pH 8.0 at 4 C; recombinant protein; label: 5' FITC on sense strand
PcfF1-54 + PcfG = experiment: EMSA; details: no supershift by 300 nM PcfG, PcfF1-54-oriT complex itself forms; EMSA: 30 nM DNA, 10 mM Tris/HCl pH 7.5, 200 mM NaCl (150 mM NaCl with PcfG), 15 min at room temperature; 20% native PAGE in TAE pH 8.0 at 4 C; recombinant protein; label: 5' FITC on sense strand

Sequence | binding result [1] | binding result (PcfF + PcfG) | binding result (PcfF1-54 + PcfG)
GCGAAATATTGGTACCCCATGGAATCGAGGGATCCTCTAGTCGCAACATGCTAGCATGTTGCTCCGCTTGCAAAAAGAAAAGTCGACACGCGTAGATCTGCTAGCATCGATCCATGGACT (double strand) [oriT middle 120 bp] | binds |  | 
GTCTCGAGTTTAAAGATATCCAGCTGCCCGGGAGGCCTTCGCGAAATATTGGTACCCCATGGAATCGAGGGATCCTCTAGTCGCAACATGCTAGCATGTTGCTCCGCTTGCAAAAAGAAA (double strand) [oriT 3' 120 bp] | binds |  | 
TCGCAACATGCTAGCATGTTGCTCCGCTTGCAAAAAGAAA (double strand) [oriT 40 bp] |  | no binding | no binding

— PMC6514445, “Enterococcal PcfF Is a Ribbon-Helix-Helix Protein That Recruits the Relaxase PcfG Through Binding and Bending of the oriT Sequence” (Frontiers in Microbiology, 2019)
